Screening data, single-dose tests

By UniProt entry, the sequences of proteins in these tests, tags left out. Residues count along the entry.
UniProt Q4DA54, 1-478: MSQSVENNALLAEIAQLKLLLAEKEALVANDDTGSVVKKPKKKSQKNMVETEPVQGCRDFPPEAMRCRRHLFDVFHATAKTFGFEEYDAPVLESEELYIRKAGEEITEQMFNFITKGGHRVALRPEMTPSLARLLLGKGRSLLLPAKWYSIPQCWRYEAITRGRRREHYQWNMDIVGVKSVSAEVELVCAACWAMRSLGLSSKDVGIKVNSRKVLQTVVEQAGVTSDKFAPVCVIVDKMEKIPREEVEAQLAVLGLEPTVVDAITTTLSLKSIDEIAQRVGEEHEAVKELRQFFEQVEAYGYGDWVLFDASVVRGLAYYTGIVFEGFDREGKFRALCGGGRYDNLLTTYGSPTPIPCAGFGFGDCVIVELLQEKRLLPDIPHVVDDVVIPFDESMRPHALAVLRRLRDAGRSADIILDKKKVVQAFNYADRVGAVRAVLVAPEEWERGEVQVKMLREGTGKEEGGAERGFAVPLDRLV
UniProt P9WPC5, whole entry: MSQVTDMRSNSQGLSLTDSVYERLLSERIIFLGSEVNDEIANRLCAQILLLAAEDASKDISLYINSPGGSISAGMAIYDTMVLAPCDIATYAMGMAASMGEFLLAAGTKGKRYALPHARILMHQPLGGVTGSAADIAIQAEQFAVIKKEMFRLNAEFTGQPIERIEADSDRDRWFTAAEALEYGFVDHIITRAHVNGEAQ
UniProt P9WPC3, whole entry partner: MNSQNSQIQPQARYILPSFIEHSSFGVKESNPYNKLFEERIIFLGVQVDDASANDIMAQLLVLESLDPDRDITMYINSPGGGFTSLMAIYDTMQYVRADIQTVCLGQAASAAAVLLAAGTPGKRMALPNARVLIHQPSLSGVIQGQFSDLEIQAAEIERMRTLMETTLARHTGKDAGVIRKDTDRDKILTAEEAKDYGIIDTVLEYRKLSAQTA

The values are deposited in ChEMBL (CHEMBL3988442, “University of Dundee, Small-Polar-MMV Screening Library” (2021)).

TcHisRS: 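Histidine-tRNA ligase, Trypanosoma cruzi CL Brener (UniProt Q4DA54). Enzyme assay of histidyl-tRNA synthetase; the read-out is not stated. Concentration: 30 µM. The record gives no direction; compounds that gave an IC50 in retests scored well above the rest, so higher reads as stronger inhibition. Size under these conditions: about 69,000 compounds, about 31 of them at 50% or above in at least one test.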
ClpP1P2: 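ClpP1P2, Mycobacterium tuberculosis (UniProt P9WPC5 and UniProt P9WPC3). Protease assay of ClpP1P2, read by the AMC dye that it sets free. Concentration: 50 µM. Direction is inferred from only a few compounds that gave an IC50; most scored high, so higher reads as stronger inhibition. Most other retested compounds had strongly negative values. Size under these conditions: about 69,000 compounds, about 10 of them at 50% or above in at least one test.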

Values are the deposited “Percent Effect”, in %.
The controls that fix the scale are not given in the record; negative values are as filed.
This is an unselected part of the compounds tested.

SMILES | TcHisRS | ClpP1P2
COC(=O)C(CO)NC(=O)c1cn(Cc2ccccc2F)nn1 (stereo unspecified) | 5.263% | -2.987%
COc1ccc(N2Cc3n[nH]c(=O)n3C2=O)cc1 | 7.407% | -17.39%
CCN(Cc1cccc2c1OCO2)C(=O)NCCOC | -0.8547% | -6.661%
CCS(=O)(=O)N1CCc2cc(C(=O)NC)c(NCC3CC3)nc2CC1 | 6.098% | -149.2%
Cc1nc(NC2CCCC2)cc(C2CCN2c2ncccn2)n1 (stereo unspecified) | 4.981% | -2.72%
N#Cc1cccc(S(=O)(=O)N2CCCCC2CCN2CCCC2=O)c1 (stereo unspecified) | -2.479% | -9.213%
Cn1cc(C2CCCN2C(=O)CCCOc2ccc(F)cc2F)cn1 (stereo unspecified) | 0.7519% | -4.484%
COCC(=O)N1CCN(C(=O)c2scnc2C)CC1 | -1.087% | -4.663%
CN(C)c1ncccc1CNC(=O)N1CCN(C)c2ccccc2C1 | 3.804% | 0.23%
CC(=O)N1CCCC(Cc2cnc(-c3c(C)nn(C)c3C)cn2)C1 (stereo unspecified) | 13.91% | -3.079%
Cc1ccc(CN2CCC(CNC(=O)Cn3cncn3)CC2)cc1 | 7.229% | -18.09%
Cc1cnc(N2C(=O)CSC2c2ccccc2)s1 (stereo unspecified) | 13.4% | -0.1494%
CCCS(=O)(=O)N1CCCC1c1cccc(N(C)C)c1 (stereo unspecified) | 1.299% | 1.282%
Cc1ccc(C(C(=O)NCc2n[nH]c(N)n2)N(C)C)cc1 (stereo unspecified) | 3.863% | -8.046%
CC(C)OCc1ncn2c1CN(Cc1ccoc1)CCC2 | 8.867% | -5.344%
Cc1ccc(Nc2ncnc3c2CCN(CC2CCOC2)CC3)cc1 (stereo unspecified) | 8.046% | -8.677%
Cc1ccc(C(C)N(C)C(=O)c2ccc(=O)n(C)c2)s1 (stereo unspecified) | -2.762% | -8.013%
Cc1noc(C)c1CN1CCc2ncnc(-c3cccnc3)c2CC1 | 11.64% | 1.692%
OC1CCN(CCCNc2nccc(C3CCCC3)n2)CC1 | 8.8% | 8.201%
CC(C)CN1C[C@@H](C(=O)O)C[C@@H](C(=O)NCc2ccncc2)C1 | 2.646% | -0.4936%
CCCNC(=O)CCNC(=O)c1sc2ccc(F)cc2c1C | -2.632% | 9.857%
CCn1c(C)nnc1SCCNC(=O)c1cnc(C(C)(C)C)nc1O | 0.6494% | -12.57%
O=C(c1cccnc1)N1CCC2(CC1)COCCN(c1ncccn1)C2 | 3.509% | -23.88%
COCC(O)CNc1ccc(C#N)cc1C(F)(F)F (stereo unspecified) | 2.924% | -0.6809%
NC(=O)c1cc2c(nc1N1C[C@H]3OC(=O)N(C4CCCC4)[C@H]3C1)CCC2 | 15% | 3.217%
O=C1CC[C@H](C(=O)Nc2cnn(-c3ccccc3Br)c2)N1 | 7.212% | -6.895%
Cc1nn(C)c(C)c1S(=O)(=O)N1CC[C@H]2O[C@@H](C)C[C@H]2C1 | 3.883% | 9.445%
CS(=O)(=O)NCCC1CCCCN1C(=O)NCCc1ccccc1 (stereo unspecified) | 1.026% | 6.072%
CN1CCN(CC[C@@H]2CC[C@H](O)[C@@H](C(=O)Nc3ccccc3)O2)CC1 | 0.4975% | -14.26%
O=C(COc1ccccc1)N1CCC[C@]2(C[C@@H](OCC3CC3)CO2)C1 | 5.376% | -5.003%
Cn1c(SCc2noc(C(C)(C)C)n2)nnc1C1CCS(=O)(=O)C1 (stereo unspecified) | 1.01% | 10.32%
COc1ccc(NC(C)c2ccc(C#N)cc2)cc1N1CCCC1=O (stereo unspecified) | 5.051% | -3.959%
CC(C)c1noc(C2CC(=O)N(CCN(C)C)C2)n1 (stereo unspecified) | 0% | -2.168%
CC(C)c1nc(CN(C)C2CCN(Cc3nnc(C4CC4)o3)C2)no1 (stereo unspecified) | 7.692% | 2.401%
COCCN(C)Cc1cn(C)nc1-c1ccc2c(c1)OCCO2 | 1.754% | -16.23%
Cc1ccccc1SCC(=O)NS(=O)(=O)c1ccc2c(c1)OCCO2 | -0.5917% | -21.78%
Cc1cccc(-c2nccnc2C2CCCN(C)C2)c1C (stereo unspecified) | 1.916% | -18.23%
CN1CC(C(=O)NCCOc2ccc3c(c2)OCO3)CC1=O (stereo unspecified) | 6.358% | -29.34%
COc1cc(C)c(CN2CCC3(CC2)[C@H](O)C[C@@H]3OCCN)cc1C | -1.149% | -11.29%
CC(C)[C@]1(O)CN(C(=O)C2(Cn3cccn3)CC2)C[C@H]1C | 12.06% | -7.273%
CC(C)CN1CCC2(CCN(Cc3ccsc3)CC2)C1=O | 5.263% | 8.186%
Clc1ccc(OCCCN2CCOC(Cn3cncn3)C2)cc1 (stereo unspecified) | 6.017% | 18.83%
O=C1[C@H]2CN(C3CCOC3)C[C@H]2CN1c1ccccc1 (stereo partly specified) | 5.747% | 1.218%
Cc1cccc(O[C@H]2COCCN(C3CCC3)C2)n1 | -0.4975% | 1.679%
CC(=O)c1ccc(-n2c(C)cn(CCC(=O)NC(N)=O)c2=O)cc1 | 6.098% | -4.869%
c1cncc(CN2CCc3ncnc(C4CCOC4)c3CC2)c1 (stereo unspecified) | 3.825% | 11.62%
CCc1cnc(NCC2OCCc3ccccc32)nc1 (stereo unspecified) | -4.598% | 4.198%
COCCN(C)C[C@@H]1CN(C(=O)NC2CCCCC2)C[C@@H]1CO | -0.4292% | -12.55%
Cc1ccccc1CN1CC[C@H]2C[C@H](C(=O)N(C)C)O[C@H]2C1 | 4.132% | 9.428%
CCNC(=O)C1CCN(Cc2ccc(C(=O)Nc3cnns3)cc2)C1 (stereo unspecified) | 9.045% | 14.01%
Cc1nn(C)c2cnn(CC(=O)NCCc3ccccc3)c12 | -0.5464% | 0.758%
Cc1ccc(-c2ncc(C(=O)N3CCN4CCCCC4C3)c(O)n2)cc1 (stereo unspecified) | 4.217% | -1.79%
Cc1nc(CN2CCOC3(CCCC3)C2)no1 | 5% | 1.874%
C[C@@H]1CN(C(=O)CSc2nncn2C)C[C@@]1(O)C1CC1 | 4.372% | -10.82%
Cc1ccccc1C1(C(=O)NCCN2CCC(C)CC2)CCOCC1 | 2.639% | 3.828%
Cc1nn(C)c(C)c1CCC(=O)N1CCCOC(Cn2cccn2)C1 (stereo unspecified) | 10.13% | -11.71%
CCNc1ncc(C(=O)N2CCOC(CCCc3ccccc3)C2)cn1 (stereo unspecified) | 6.383% | 8.386%
CCC(O)CN1CCN(C(=O)c2cnn(-c3ccccc3F)c2)CC1 (stereo unspecified) | 10% | 2.674%
Cc1ccc(OCC2CCCN(c3cc(C(N)=O)ccn3)C2)cc1 (stereo unspecified) | 12.73% | -9.809%
CN1CCC(N(Cc2ccco2)S(=O)(=O)c2ccc(Cl)cc2)CC1 | 3.061% | -19.67%
CCCn1[nH]cc/c1=N\C(=O)CN1CCCC1Cn1cc(C)cn1 (stereo unspecified) | -1.538% | -10.37%
CN(C)c1nccc(C2CN(c3cnccn3)CCO2)n1 (stereo unspecified) | 2.571% | -16.68%
CCC(=O)NC1CCCN(C(=O)c2ccc(OCC3CC3)nc2)C1 (stereo unspecified) | 2.976% | -3.924%
O=C(CC1CCCO1)NCCc1ccc(Br)cc1F (stereo unspecified) | 8.621% | -2.221%
COCCN(c1ccncc1)S(=O)(=O)c1cc(C)cc(F)c1 | 2.02% | 3.142%
CCn1c(C2CCCN(C(=O)C(C)(C)OC)C2)nn(CCN(C)C)c1=O (stereo unspecified) | 2.513% | -8.579%
O=C(c1n[nH]cc1Cl)N1CCOCC1 | 1.327% | -3.997%

The first 4 entries again:

- COC(=O)C(CO)NC(=O)c1cn(Cc2ccccc2F)nn1 (stereo unspecified) | TcHisRS: 5.263%; ClpP1P2: -2.987%
- COc1ccc(N2Cc3n[nH]c(=O)n3C2=O)cc1 | TcHisRS: 7.407%; ClpP1P2: -17.39%
- CCN(Cc1cccc2c1OCO2)C(=O)NCCOC | TcHisRS: -0.8547%; ClpP1P2: -6.661%
- CCS(=O)(=O)N1CCc2cc(C(=O)NC)c(NCC3CC3)nc2CC1 | TcHisRS: 6.098%; ClpP1P2: -149.2%